Source: PMC2164959

Chains of the proteins cited; added tags and fusions are not shown. Residues count along the entry.
UniProt P27824, residues 21-592: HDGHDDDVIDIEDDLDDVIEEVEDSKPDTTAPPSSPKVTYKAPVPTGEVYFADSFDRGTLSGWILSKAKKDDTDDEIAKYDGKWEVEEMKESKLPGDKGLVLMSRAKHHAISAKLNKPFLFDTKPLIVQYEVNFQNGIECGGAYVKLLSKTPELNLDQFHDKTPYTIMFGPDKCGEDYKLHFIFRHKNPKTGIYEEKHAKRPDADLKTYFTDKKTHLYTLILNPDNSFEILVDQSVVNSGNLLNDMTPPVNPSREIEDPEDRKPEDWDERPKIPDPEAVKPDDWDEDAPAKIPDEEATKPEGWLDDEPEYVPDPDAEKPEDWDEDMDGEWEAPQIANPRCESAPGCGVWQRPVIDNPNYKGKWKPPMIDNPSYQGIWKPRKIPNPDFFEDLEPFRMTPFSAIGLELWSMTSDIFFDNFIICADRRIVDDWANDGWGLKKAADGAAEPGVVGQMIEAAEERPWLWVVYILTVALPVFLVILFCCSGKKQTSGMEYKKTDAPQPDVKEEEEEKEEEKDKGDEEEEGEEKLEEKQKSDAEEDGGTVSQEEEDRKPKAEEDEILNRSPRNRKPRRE

Target: GFP-tagged HPV16 E5 mutant M1 (pEGFP-M1) (human papillomavirus type 16) (UniProt P06927)
Experiment: co-IP; HEK-293T transfected, lysed 20-24 h after transfection in CHAPS buffer (0.2 M NaCl, 50 mM HEPES pH 7.5, 2% CHAPS); immunoprecipitation by the tag of E5 (anti-AU1, anti-HA or anti-GFP), protein G-sepharose, blot with anti-calnexin

calnexin (from UniProt P27824 21-592) was tested, and the binding was “binds”.

Results are given in words; binding and its absence hold for the method and conditions named. In cells and extracts the contact can be indirect. A result given as binding can be weak or reduced; the word gives no strength.
